# From PubChem BioAssay AID1347426 (Functional Genomics Laboratory (NCATS/FGL), 2020)
# Among all 31,000 sequences or so, about 1,400 (4.5%) were called active.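 How the source made its calls: active means median seed-adjusted z-score above 1 or below -1; inactive means the rest.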 The list shows a part of the results.
# Assay: Novel Modifiers of Survival Motor Neuron (SMN) Protein: Gene Identification via Genome-wide siRNA Screen;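 further: luminescence tracks full-length SMN protein made from the SMN2 reporter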
# Conditions: HEK293T SMN2-luciferase reporter, siRNA knockdown, 72 h; actives lie on both sides
# How it was run: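 Genome-wide siRNA screen (10418 genes, 3 siRNAs each, 1 pmol per well) by reverse transfection in HEK293T cells stably carrying an SMN2-luciferase reporter; luminescence after 72 hours, normalized to negative-control siRNA, log10-transformed, MAD-scored.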
row,Sequence,median seed-adjusted z-score
1,ACAUAGUGCUCUUCCUAGATT against CCR4,inactive: 0
2,CCUCUUCACAGGUAUCCGATT against ARAP3,inactive: -0.00876
3,GGAAGGAUAUUACACCUAUTT against MMP24,active: -1.28
4,GCAGUUUGAGCAAUCAGAATT against IGF2BP3,inactive: -0.636
5,GAUUGAUCUUUACCCAAGATT against AMZ2,inactive: 0.26
6,GCAGAUCCUUGAGAAGCGATT against ACAD9,inactive: -0.384
7,GGCGAGGCUUUAUAGUUGATT against ZNF589,inactive: -0.0897
8,CACUGAAUGAAGACUCAUATT against YWHAQ,inactive: -0.412
9,GCAGGUUCACUUACACUGUTT against COL1A2,inactive: 0.481
10,GGAUAUGGUUAAUAGGAGATT against SMC6,inactive: 0.227
11,GGAGGUCACUUGUGAAUCATT against GLS2,inactive: -0.793
12,GGUUAUAGUUCCUACAGAUTT against HMGCLL1,inactive: 0.275
13,CAGCGGGUAUGGGAUCCUATT against ZNF593,inactive: 0.215
14,CACUGAAGCUAAUCGCUAUTT against GRM1,inactive: 0.0376
15,UGGACAUCGUGGAUCCAAATT against PRMT8,inactive: 0
16,CACCGACUUGUUAAAAGAATT against MTA1,inactive: 0.407
17,CAUUUACCAUGGUCGGAAUTT against NAAA,inactive: -0.137
18,GGAACCAGAUUGAACGGAUTT against ECM2,inactive: 0.179
19,GUUCAUGGUUUGUACAGCATT against ZNF766,inactive: -0.577
20,GGAGUGUGAAGAUCGAGCATT against KCNN1,inactive: -0.347
21,CCAAAGCUCUCAUCGGAGATT against GNS,inactive: 0
22,UCGAGGCUUUCUACAGAAATT against RAB42,inactive: 0.241
23,CACUGGGUUUUAUCUGAAUTT against APOH,inactive: 0.0283
24,GCUCUUUACUUGGGCAUUATT against CLDN2,inactive: 0.865
25,GGCUGUAACGUGAACAUCATT against DAPK1,inactive: 0.27
26,GCACUGAAGGCUACAACAATT against PCSK4,inactive: 0.828
27,GCUUAAAUUAUAUACCUUGTT against WDFY3,inactive: -0.12

# Given with bars between the fields: part of the list above
row | Sequence | median seed-adjusted z-score
7 | GGCGAGGCUUUAUAGUUGATT against ZNF589 | inactive: -0.0897
20 | GGAGUGUGAAGAUCGAGCATT against KCNN1 | inactive: -0.347

# Next entries:

row,Sequence,median seed-adjusted z-score
1,GAAAUUGGAUGUGAGGAUATT against MLH1,inactive: -0.215
2,GAGUCAAAUUUGUGAAGAATT against GLO1,inactive: -0.0827
3,GGCUCUACAGUAAUGACUUTT against HTR2A,inactive: 0.0665
4,CCACCAUAGAGGAUUCUUATT against NRAS,inactive: -0.581
5,UGAGAUUACUGAAUUGAGATT against KRT10,inactive: 0.493
6,CGAUGCCUGUUAUAAAUUATT against RCAN3,inactive: 0.544
7,AAAGAAGUGUUGACCAGGATT against TRIM4,inactive: 0
8,GUACAGUCUUUAUCCACCATT against ACSM1,inactive: 0.658
9,GGCAUUAACUAACAUAGCATT against KPNA3,inactive: 0.383
10,GGAUGGCCAUUGAAGGGAUTT against ECHDC2,inactive: -0.0827
11,AUCCAGAAGUUGUCAGUCATT against PAK6,inactive: -0.57
12,GGACAUUUGCAUACUCCUATT against PPP1R14D,inactive: 0
13,GGAACAGGAUGAAUAUGCATT against HADHB,inactive: -0.188
14,CUAUACCUGUAAUUGCUAATT against DUS4L,inactive: 0.525
15,CAUGAUAAGCUUCUGGUUATT against VHLL,inactive: -0.0852
16,GGCCUUUGUCGGUGACAUUTT against NPTXR,inactive: 0.0818
17,ACAUCGUCAUGGAGAUUGATT against FADS2,inactive: 0.0769
18,GAACCAGACAGAGCCUGAATT against ABCC6,inactive: 0.108
19,GGUGGAAUAUUACCAGUCATT against MARVELD3,inactive: -0.021
20,GUAACAACAAGUACUCCUATT against KCTD13,inactive: -0.273
21,GCACCGCACCACCAACUUUTT against EN1,inactive: 0.761
22,GGUGGACAGGGUAAAAGAATT against TAF13,inactive: -0.919
23,GAACUCAUCAAAAUGCACATT against KLF15,inactive: -0.45
24,GCCCUUAGAUUCAGAUAGATT against MASTL,inactive: -0.195
25,CGUGUGGACUUGACAAGCATT against OBSCN,inactive: -0.798
26,GCAUAUAUGAUCAUUCAAUTT against RRAGD,inactive: 0.313
27,GAGUCCUCUUGUGACCUCATT against LILRB4,inactive: -0.104

# 2 neighbouring records out of the list so far, quoted:
row,Sequence,median seed-adjusted z-score
20,GUAACAACAAGUACUCCUATT against KCTD13,inactive: -0.273
21,GCACCGCACCACCAACUUUTT against EN1,inactive: 0.761
